Reference: paper PMC9927405

Columns and labels:
[1] = target: T1, Neospora caninum mitochondrial glutaredoxin 5, HA-tagged (NcGRX5-HA) (Neospora caninum) (UniProt F0VJR9); assay: co-IP; NcGRX5-HA precipitated with HA magnetic beads from doubly tagged parasites lysed in nondenaturing lysis buffer with ultrasonication; 2 h at 4 °C, five washes; blots with anti-FLAG, anti-HA and anti-actin
T1 sequence: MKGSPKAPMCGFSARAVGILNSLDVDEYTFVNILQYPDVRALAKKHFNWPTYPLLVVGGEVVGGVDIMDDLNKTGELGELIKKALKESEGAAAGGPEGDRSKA

[2] = target: Cysteine desulfurase ISCS of N. caninum, FLAG-tagged (ISCS-FLAG) (Neospora caninum); assay: co-IP; FLAG-tagged ISCS or ISCU1 precipitated with FLAG magnetic beads from doubly tagged parasites lysed in nondenaturing lysis buffer with ultrasonication; 2 h at 4 °C, five washes; blots with anti-FLAG, anti-HA and anti-actin
[3] = target: Scaffold protein ISCU1 of N. caninum, FLAG-tagged (ISCU1-FLAG) (Neospora caninum); assay: as above

Molecule: Scaffold protein ISCU1 of N. caninum, FLAG-tagged (ISCU1-FLAG) (Neospora caninum)
binding [1]: binds

Molecule: Scaffold protein ISCU2 of N. caninum, FLAG-tagged (ISCU2-FLAG) (Neospora caninum)
binding [1]: no binding

B1: Neospora caninum mitochondrial glutaredoxin 5, HA-tagged (NcGRX5-HA) (protein, UniProt F0VJR9 1-103)
chain: T1 sequence
binding [2]: binds | binding [3]: binds

Other lines, results leading:

binding [1]: binds
Molecule: Cysteine desulfurase ISCS of N. caninum, FLAG-tagged (ISCS-FLAG) (Neospora caninum)

binding [1]: no binding
Molecule: HSP70 SSQ1 of N. caninum, FLAG-tagged (SSQ1-FLAG) (Neospora caninum)

Results are given in words; binding and its absence hold for the method and conditions named. Binding seen in cells or lysates may run through a third protein. Binding calls can cover weak binding; strength is not graded here. Where a sequence is shown, tags or fusion partners need not be part of it. Each block holds one molecule with its values, some of them ahead of it.
